Data taken from publication PMC6803327.
No constants are given. Whether binding was seen depends on the method and setting. For some assays here: In cells and extracts the contact can be indirect. Sequences can lack the tags named with a protein.

What was measured:
[1] = biological target: T1, FLAG-tagged IncF (IncF_(FLAG)) (C. trachomatis (serovar of the cloned gene not stated)) (UniProt B0B9M5); assay: co-IP; FLAG magnetic beads on clarified lysates of HeLa cells infected with C. trachomatis L2 CT226_(FLAG) or IncF_(FLAG) transformants (aTc at 7 hpi, lysed at 24 hpi; 50 mM Tris-HCl pH 7.4, 150 mM NaCl, 0.5% deoxycholate, 0.1% SDS, 1% Triton X-100), 2 h at 4°C, eluted with FLAG peptide; blot with anti-LRRF1; three replicates
T1 sequence: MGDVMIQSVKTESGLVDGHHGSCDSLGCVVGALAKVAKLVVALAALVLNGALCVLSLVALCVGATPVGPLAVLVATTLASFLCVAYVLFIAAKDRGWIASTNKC

[2] = biological target: T2, CT288 (BACTH fusion) (C. trachomatis serovar L2) (UniProt O84290); assay: two-hybrid; bacterial adenylate cyclase two-hybrid (BACTH): pST25 and pUT18C fusions cotransformed into E. coli DHT1 (ΔcyaA), minimal medium with IPTG and X-Gal, 30°C 3 to 5 days; β-galactosidase assay in relative units; positive: more than five times the negative control
T2 sequence: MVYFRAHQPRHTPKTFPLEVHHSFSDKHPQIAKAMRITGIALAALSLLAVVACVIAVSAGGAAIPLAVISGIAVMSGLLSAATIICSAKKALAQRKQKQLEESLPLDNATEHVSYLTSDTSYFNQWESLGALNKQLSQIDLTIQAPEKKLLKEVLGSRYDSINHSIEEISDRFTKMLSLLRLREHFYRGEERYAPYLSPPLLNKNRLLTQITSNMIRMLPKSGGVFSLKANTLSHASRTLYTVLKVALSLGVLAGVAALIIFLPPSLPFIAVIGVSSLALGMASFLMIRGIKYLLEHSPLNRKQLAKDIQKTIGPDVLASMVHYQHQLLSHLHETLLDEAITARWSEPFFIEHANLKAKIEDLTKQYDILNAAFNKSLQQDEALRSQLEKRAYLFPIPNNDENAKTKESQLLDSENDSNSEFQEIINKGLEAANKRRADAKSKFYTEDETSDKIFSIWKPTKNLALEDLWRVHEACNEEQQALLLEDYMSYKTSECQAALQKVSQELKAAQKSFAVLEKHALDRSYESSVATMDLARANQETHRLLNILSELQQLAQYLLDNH

Row | Substance | binding [1] | binding [2]
1 | leucine-rich repeat flightless-interacting protein 1 (endogenous) (human (endogenous in HeLa)) | no binding | 
2 | LRRF1 (BACTH fusion) (human) |  | no binding
